Results: PMC6473003
Results are given in words; binding and its absence hold for the method and conditions named. In cells and extracts the contact can be indirect. A result given as binding can be weak or reduced; the word gives no strength. Sequences can lack the tags named with a protein.

Biological target: T1, Myc-TRIM56 (UniProt Q9BRZ2)
T1 sequence: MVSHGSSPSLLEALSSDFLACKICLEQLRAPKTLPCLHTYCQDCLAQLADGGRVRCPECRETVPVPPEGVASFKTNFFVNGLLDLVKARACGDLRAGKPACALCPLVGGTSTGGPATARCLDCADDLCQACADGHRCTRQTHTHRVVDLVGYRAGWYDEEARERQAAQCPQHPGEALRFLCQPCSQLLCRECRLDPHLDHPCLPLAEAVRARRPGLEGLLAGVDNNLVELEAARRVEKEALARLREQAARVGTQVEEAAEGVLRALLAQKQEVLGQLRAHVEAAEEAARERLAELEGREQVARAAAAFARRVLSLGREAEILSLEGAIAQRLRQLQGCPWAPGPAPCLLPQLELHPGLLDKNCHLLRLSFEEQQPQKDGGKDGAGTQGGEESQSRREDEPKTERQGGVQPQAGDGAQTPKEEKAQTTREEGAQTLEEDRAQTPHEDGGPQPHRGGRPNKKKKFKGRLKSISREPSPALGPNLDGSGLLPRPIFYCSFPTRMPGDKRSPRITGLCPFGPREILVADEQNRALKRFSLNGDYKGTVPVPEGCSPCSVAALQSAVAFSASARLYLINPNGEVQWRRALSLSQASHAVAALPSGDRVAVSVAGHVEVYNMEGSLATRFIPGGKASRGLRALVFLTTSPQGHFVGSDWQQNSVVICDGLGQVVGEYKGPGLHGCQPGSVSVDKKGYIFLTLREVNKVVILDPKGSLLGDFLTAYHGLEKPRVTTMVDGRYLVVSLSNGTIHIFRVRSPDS
Experiment: co-IP; HEK293 cells transfected with Myc-TRIM56 and HA-ER alpha full length or mutants, NP-40 lysis buffer after 24 h, IP with Myc antibody, blot with HA antibody

binding | Substance
binds | HA-ER alpha ΔAF2+ΔDBD (human) (domain or fragment)
binds | HA-ER alpha ΔAF2 (human) (domain or fragment)
